Source: patent US20210340232A1, “MONOCLONAL ANTIBODIES AGAINST HUMAN DICKKOPF3 AND USES THEREOF” (Board of Regents, The University of Texas System, priority 2018, published 2021)
Some of these results come from one statement about several compounds together.

B1: JM6-6-1: monoclonal antibody against human DKK3; heavy chain variable SEQ ID NO: 19, light chain variable SEQ ID NO: 20 (antibody, V domains shown)
VH: EVKLVESGGGLVKPGGSLKLSCAASGFTFTIEYMAWIRQTPEKRLEWVASISSGGDDIYYADNVKGRFTISRDNAKNTLYLQMSSLKSEDTAIYYCSRSLSDWGQGTTLTVSSAKTTPPSDYPLA
VL: MTQTPLSLPVSLGDQASISCRSSQSILHSNGHTYLEWYLQKPGQSPKLLIYKVSNRFSGVPDRFSGSGSGTDFTLKISRVEAEDLGVYYCFQGSHVPFTFGSGTKLEIERADAAQ
B2: JM8-12-1: monoclonal antibody against human DKK3; heavy chain variable SEQ ID NO: 17, light chain variable SEQ ID NO: 18 (tabled as JM8-12-2) (antibody, V domains shown)
VH: MKPSQSLSLTCTVTGYSITSDYAWNWIRQFPGNKLEWMGYISYRGSTRYNPSLKSRISITRDTSKNQLYLQLHSVTTEDTATYYCVHDGYYWVQQTLVTVSAAKTTPPSDY
VL: QDPRVDIVLTQSPASLAVSLFQRATISYRASKSVSTSGYSYMHWNQQKPGQPPRLLIYLVSNLESGVPARFSGSGSGTDFTLNIHPVEEEDAATYYCQHIRELTRSEGGPSWK

What was measured:
[1] = test system: HPSCs; assay: HPSC Transwell migration assay at 48 hours; type: cell-based, human
[2] = test system: HPSCs; assay: HPSC apoptosis / growth arrest measured by FACS at 48 hours; type: cell-based, human

Row | Molecule | inhibited migration compared with isotype control mAb [1] | induced growth arrest compared with isotype control mAb [2]
1 | B1 | 5- to 11 fold | 70- to 80 fold
2 | B2 | 5- to 11 fold | 70- to 80 fold
